{"sequences": {"note": "Chains of the proteins cited; added tags and fusions are not shown. Lines headed by an entry give the natural chain unless they say otherwise; changes in a name come on top.", "UniProt P20226": "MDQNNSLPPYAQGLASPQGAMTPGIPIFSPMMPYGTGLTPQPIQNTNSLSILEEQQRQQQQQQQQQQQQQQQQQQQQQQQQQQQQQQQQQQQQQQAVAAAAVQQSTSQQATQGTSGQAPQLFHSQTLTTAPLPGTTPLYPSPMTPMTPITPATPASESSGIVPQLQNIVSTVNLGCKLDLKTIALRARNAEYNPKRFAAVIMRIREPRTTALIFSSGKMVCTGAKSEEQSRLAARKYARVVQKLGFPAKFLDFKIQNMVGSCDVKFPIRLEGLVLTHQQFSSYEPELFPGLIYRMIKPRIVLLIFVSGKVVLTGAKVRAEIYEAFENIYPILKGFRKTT", "UniProt P01106": "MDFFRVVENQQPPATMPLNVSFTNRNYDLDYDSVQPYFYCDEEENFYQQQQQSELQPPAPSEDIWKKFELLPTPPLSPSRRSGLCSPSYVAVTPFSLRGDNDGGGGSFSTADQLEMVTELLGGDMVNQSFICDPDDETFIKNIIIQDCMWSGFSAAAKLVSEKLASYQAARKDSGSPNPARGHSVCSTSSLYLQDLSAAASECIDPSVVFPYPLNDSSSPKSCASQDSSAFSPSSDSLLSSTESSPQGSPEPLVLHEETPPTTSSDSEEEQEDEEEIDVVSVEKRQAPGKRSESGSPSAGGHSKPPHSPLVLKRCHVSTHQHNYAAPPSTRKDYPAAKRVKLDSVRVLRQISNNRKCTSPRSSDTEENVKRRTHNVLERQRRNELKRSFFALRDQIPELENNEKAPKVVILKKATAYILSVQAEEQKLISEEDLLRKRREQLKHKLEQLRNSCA"}, "source": "paper PMC10904854", "target": "TATA-box binding protein (endogenous, SH-SY5Y cells) (human (endogenous in SH-SY5Y)) (UniProt P20226)", "assay": "proximity ligation; in situ PLA (Duolink) on fixed SH-SY5Y cells, endogenous proteins, nuclear puncta counted; cells untreated or treated with EGCG (25-100 uM) for 24 h", "note": "No constants are given. Whether binding was seen depends on the method and setting. Binding seen in cells or lysates may run through a third protein. Binding calls can cover weak binding; strength is not graded here.", "data": [{"substance": "c-MYC (endogenous, SH-SY5Y cells) (from UniProt P01106)", "values": [{"measurement": "binding", "result": "binds"}]}]}
